The exact form of at least one protein or probe is not confirmed. The direction of at least one scale is not stated here. Protein sequences can lack the tags named with them.
Biological target: T1, Carcinoembryonic antigen (CEA) (UniProt P06731)
T1 sequence (looked up, limits assumed): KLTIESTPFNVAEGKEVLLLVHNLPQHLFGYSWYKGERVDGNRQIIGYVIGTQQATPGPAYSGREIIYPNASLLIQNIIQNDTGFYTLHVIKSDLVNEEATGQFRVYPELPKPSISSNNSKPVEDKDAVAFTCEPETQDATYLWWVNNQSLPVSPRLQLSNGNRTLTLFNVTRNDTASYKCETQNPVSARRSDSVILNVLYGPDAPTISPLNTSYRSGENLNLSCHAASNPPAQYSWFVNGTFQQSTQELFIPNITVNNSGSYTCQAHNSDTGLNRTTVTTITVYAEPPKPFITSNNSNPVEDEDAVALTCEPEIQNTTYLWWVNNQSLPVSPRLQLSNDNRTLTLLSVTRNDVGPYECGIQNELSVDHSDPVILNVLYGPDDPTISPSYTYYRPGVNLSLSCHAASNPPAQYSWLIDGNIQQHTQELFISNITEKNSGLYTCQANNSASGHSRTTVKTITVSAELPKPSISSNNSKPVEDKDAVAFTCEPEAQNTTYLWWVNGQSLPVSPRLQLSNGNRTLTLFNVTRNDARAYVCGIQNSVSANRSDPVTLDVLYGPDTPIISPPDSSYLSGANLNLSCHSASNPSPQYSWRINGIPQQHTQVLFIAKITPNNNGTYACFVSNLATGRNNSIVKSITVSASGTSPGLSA
Experiment: binding assay
Conditions: ODI chemiluminescence; CL intensity about 4-fold higher without CEA than with 80 ng/ml CEA; 1 uM CH-2, 740 nM hemin, 1 h room temperature; indirect; purified native protein; protein details: Lee Biosolutions CEA antigen; single-stranded DNA

## ATACCAGCTTATTCAATTAAAAATAAAGGGTAGGGCGGGTTGGGTAAAT [CH-2 (CEA aptamer-A5 linker-hemin aptamer)]
  binding signal: 4 fold
